The source of these data is publication PMC10586200.

The chains behind the UniProt entries cited, without tags or fusion partners.
UniProt Q8IY31: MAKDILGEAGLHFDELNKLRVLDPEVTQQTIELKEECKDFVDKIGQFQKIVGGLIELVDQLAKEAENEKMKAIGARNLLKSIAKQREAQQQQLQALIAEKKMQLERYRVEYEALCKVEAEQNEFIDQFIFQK
UniProt A0AVF1: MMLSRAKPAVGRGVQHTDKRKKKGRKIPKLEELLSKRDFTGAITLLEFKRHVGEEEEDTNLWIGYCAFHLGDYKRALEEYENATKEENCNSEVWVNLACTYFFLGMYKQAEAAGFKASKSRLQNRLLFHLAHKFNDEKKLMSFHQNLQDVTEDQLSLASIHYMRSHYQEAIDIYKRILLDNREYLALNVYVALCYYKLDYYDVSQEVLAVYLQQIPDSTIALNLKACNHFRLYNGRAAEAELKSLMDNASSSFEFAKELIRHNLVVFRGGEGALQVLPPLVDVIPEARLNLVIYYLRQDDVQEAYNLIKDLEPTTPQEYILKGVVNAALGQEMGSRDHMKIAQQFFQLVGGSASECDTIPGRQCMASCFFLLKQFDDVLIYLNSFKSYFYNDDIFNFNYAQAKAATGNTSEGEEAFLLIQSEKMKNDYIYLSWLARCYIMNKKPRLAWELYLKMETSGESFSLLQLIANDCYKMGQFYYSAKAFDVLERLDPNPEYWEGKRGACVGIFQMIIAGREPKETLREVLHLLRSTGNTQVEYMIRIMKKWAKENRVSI

No constants are given. Whether binding was seen depends on the method and setting. In cells and extracts the contact can be indirect. A yes stands for co-enrichment or nearness to the bait. Other partners may have been found. For part of these data: No binding means not detected with the bait. Where a sequence is shown, tags or fusion partners need not be part of it.

What all share (assay): affinity purification with mass spectrometry; Strep-FLAG-tagged IFT74 constructs transfected into HEK293 cells, anti-FLAG immunoprecipitation, LC-MS/MS with label-free quantification, enrichment against the RAF1 Strep-FLAG control, six replicates each
The target of experiment [1] is T1, Strep-FLAG-tagged full-length IFT74 (human) (UniProt Q96LB3).
T1 sequence: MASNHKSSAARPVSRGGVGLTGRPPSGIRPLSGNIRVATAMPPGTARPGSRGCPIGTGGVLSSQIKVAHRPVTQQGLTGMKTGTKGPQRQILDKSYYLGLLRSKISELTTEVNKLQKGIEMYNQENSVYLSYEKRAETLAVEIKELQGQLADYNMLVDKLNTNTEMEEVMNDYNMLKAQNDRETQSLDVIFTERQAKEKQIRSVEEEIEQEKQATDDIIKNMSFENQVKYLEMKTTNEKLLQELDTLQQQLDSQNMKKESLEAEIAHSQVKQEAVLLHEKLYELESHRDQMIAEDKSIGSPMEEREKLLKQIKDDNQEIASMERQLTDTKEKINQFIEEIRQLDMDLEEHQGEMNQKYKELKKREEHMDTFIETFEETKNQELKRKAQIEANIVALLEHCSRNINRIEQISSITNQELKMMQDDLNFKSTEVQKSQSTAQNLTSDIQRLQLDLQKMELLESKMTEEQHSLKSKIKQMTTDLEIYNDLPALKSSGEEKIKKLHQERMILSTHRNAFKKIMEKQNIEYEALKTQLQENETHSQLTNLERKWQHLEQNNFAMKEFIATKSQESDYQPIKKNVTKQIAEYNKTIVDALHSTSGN

For experiment [2], the target named is T2, Strep-FLAG-tagged truncated IFT74 initiated from M121 (human) (UniProt Q96LB3).
T2 sequence: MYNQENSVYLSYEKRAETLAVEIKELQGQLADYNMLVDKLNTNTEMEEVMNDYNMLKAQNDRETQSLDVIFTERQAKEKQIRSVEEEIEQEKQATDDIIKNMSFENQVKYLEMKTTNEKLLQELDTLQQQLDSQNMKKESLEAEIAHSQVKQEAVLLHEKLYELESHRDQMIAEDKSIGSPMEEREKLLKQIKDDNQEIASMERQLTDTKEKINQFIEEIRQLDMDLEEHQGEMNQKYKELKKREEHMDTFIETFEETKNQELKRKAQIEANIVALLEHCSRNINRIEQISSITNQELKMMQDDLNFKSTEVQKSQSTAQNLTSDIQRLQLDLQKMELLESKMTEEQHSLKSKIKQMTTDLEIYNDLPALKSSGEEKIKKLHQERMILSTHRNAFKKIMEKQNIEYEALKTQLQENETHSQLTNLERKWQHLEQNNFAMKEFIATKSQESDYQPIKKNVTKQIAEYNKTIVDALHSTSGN

Experiment [3] deals with T3, Strep-FLAG-tagged truncated IFT74 initiated from M41 (exon 2 deletion mutant) (human) (UniProt Q96LB3).
T3 sequence: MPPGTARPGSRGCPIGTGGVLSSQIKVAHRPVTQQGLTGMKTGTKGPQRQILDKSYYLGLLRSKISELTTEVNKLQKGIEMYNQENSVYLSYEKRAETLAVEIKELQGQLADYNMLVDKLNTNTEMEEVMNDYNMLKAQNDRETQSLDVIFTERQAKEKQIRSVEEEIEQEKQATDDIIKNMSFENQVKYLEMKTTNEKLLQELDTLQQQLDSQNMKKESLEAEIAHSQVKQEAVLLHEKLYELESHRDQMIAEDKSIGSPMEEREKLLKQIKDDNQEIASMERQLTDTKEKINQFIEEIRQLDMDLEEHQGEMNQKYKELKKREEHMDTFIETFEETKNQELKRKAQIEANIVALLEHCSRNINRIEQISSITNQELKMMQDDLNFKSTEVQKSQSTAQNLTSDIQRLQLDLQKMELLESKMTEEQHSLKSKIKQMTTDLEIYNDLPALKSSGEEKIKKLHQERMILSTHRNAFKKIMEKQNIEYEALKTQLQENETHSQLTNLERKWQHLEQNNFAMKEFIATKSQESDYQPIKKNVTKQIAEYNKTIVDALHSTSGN

In experiment [4] the target is T4, Strep-FLAG-tagged truncated IFT74 initiated from M80 (human) (UniProt Q96LB3).
T4 sequence: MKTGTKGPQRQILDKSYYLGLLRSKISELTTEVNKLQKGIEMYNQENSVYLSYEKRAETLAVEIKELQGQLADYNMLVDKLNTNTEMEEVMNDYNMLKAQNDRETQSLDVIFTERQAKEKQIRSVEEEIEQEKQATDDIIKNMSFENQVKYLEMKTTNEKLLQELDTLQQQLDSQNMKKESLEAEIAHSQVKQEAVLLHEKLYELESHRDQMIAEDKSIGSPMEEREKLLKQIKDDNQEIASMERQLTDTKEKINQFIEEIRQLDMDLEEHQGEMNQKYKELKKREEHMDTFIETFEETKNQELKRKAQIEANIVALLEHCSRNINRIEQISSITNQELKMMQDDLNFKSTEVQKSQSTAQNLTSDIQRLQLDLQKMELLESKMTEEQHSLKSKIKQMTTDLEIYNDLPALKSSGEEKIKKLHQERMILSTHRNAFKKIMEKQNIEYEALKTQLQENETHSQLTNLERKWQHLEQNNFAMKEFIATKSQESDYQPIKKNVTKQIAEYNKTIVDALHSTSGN

Turning to IFT20 (from UniProt Q8IY31 1-132), the binding entry in experiment [1] was “binds”; in experiment [2] it was “no binding”; in experiment [3], “no binding”; in experiment [4] it was “no binding”.
Regarding IFT56/TTC26 (from UniProt A0AVF1 1-554), the binding entry was “binds” in experiment [1], “binds weakly” in experiment [2], “binds” in experiment [3] and “binds” in experiment [4].

B1: IFT80 (protein, UniProt Q9P2H3 1-777)
chain: MRLKISLLKEPKHQELVSCVGWTTAEELYSCSDDHQIVKWNLLTSETTQIVKLPDDIYPIDFHWFPKSLGVKKQTQAESFVLTSSDGKFHLISKLGRVEKSVEAHCGAVLAGRWNYEGTALVTVGEDGQIKIWSKTGMLRSTLAQQGTPVYSVAWGPDSEKVLYTAGKQLIIKPLQPNAKVLQWKAHDGIILKVDWNSVNDLILSAGEDCKYKVWDSYGRPLYNSQPHEHPITSVAWAPDGELFAVGSFHTLRLCDKTGWSYALEKPNTGSIFNIAWSIDGTQIAGACGNGHVVFAHVVEQHWEWKNFQVTLTKRRAMQVRNVLNDAVDLLEFRDRVIKASLNYAHLVVSTSLQCYVFSTKNWNTPIIFDLKEGTVSLILQAERHFLLVDGSSIYLYSYEGRFISSPKFPGMRTDILNAQTVSLSNDTIAIRDKADEKIIFLFEASTGKPLGDGKFLSHKNEILEIALDQKGLTNDRKIAFIDKNRDLCITSVKRFGKEEQIIKLGTMVHTLAWNDTCNILCGLQDTRFIVWYYPNTVYVDRDILPKTLYERDASEFSKNPHIVSFVGNQVTIRRADGSLVHISITPYPAILHEYVSSSKWEDAVRLCRFVKEQTMWACLAAMAVANRDMTTAEIAYAAIGEIDKVQYINSIKNLPSKESKMAHILLFSGNIQEAEIVLLQAGLVYQAIQININLYNWERALELAVKYKTHVDTVLAYRQKFLETFGKQETNKRYLHYAEGLQIDWEKIKAKIEMEITKEREQSSSSQSSKSIGLKP
For B1, the binding result was “binds” in experiment [1], “no binding” in experiment [2], “no binding” in experiment [3] and “binds” in experiment [4].
